The values that follow come from the supplement of paper PMC8166895.

Structures can show the parent of a compound that is named as a salt. This is one part of the list. Most entries show no effect beyond the scatter of the controls.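 Differential scanning fluorimetry gave melting temperatures in a one-replicate pilot screen of a library of approved drugs plus clinical or known-target compounds. Hits increasing melting point at least 2 °C were the strongest stabilizers, while negative shifts signify destabilization.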 Where a SMILES comes first, the peptide text is derived from it. [ ]: non-standard residue; d: D form.

The test relates to SARS-CoV-2 main protease (Mpro, nsp5). As to the kind of experiment: thermal shift ΔTm of Mpro relative to plate average Tm; higher = stronger thermal stabilization of Mpro (binding). As to conditions: 10 µM; protein concentration 1 µM.
`OC(c1ccccc1)(c1ccccc1)C1CCNCC1` [Azacyclonol]: the “thermal shift ΔTm of Mpro” value stood at 0.047 °C. Under `Cc1cccc(/C=N/Nc2cc(N3CCOCC3)n3nc(-c4ccncc4)cc3n2)c1` stands 0.0209 °C.

`CCCOc1ccc2c(c1)CC[C@@H]1[C@@H]2CC[C@]2(C)[C@@H](OC)CC[C@@H]12` [Promestriene]: the “thermal shift ΔTm of Mpro” value turned out to be 0.221 °C. On to `OCCNC1CCCc2c1[nH]c1ccc(-c3ccccc3)cc21` (stereo not given), for which the “thermal shift ΔTm of Mpro” value is -0.105 °C. Regarding `Cn1cc(C(=O)Nc2ccc3c(c2)OCCO3)c2ccccc2c1=O`, the “thermal shift ΔTm of Mpro” value is -0.0846 °C. `O=C(Nc1ccccc1)c1ccccc1O` [Salicylanilide]: the “thermal shift ΔTm of Mpro” value came out at 0.241 °C. With `COc1ccccc1OCCN` [Carvedilol EP IMpurity E], the “thermal shift ΔTm of Mpro” value was -0.243 °C. Under `COc1ccccc1C(=O)Nc1cccc(NC(=O)c2cccc(C)c2)c1` stands -0.451 °C; under `FC(F)(F)c1ccc(CNc2ccc(Cc3c[nH]c4ncc(Cl)cc34)cn2)cn1` [Pexidartinib (PLX3397)], 0.455 °C; under `COCC1=C(C(=O)OC(C)OC(=O)OC(C)C)N2C(=O)[C@@H](NC(=O)/C(=N\OC)c3csc(N)n3)[C@H]2SC1` (stereo not given in full) [Cefpodoxime proxetil], 0.139 °C. With `CCN(CC)CCOC(=O)C(c1ccccc1)C1CCCCC1` (stereo not given) [Drofenine hydrochloride], the “thermal shift ΔTm of Mpro” value was 0.117 °C. `COc1ccc([C@H]2CNC(=O)C2)cc1OC1CCCC1` [S- (+)-Rolipram]: the “thermal shift ΔTm of Mpro” value turned out to be 0.195 °C. With `O=C(O)c1cc(F)c2nc(N3[C@@H]4CC[C@H]3C[C@@H](OCc3c(-c5ccccc5OC(F)(F)F)noc3C3CC3)C4)sc2c1` [Tropifexor], the “thermal shift ΔTm of Mpro” value is -0.691 °C.

For the molecule `COc1ccc(S(=O)(=O)NCc2ccc(C(=O)NCCc3ccc(Cl)cn3)cc2)cc1`, the “thermal shift ΔTm of Mpro” value was determined as 0.0278 °C. On to `COc1cc2c(cc1OC)CN(CCc1ccc(NC(=O)c3cc(OC)c(OC)cc3NC(=O)c3cnc4ccccc4c3)cc1)CC2` [Tariquidar], for which the “thermal shift ΔTm of Mpro” value is -0.147 °C. Consider `CN(C(=O)c1ccc(F)cc1C(F)(F)F)C1CCN(c2nnc(-c3ccnn3C)c3ccccc23)CC1` [Taladegib], for which the “thermal shift ΔTm of Mpro” value was -0.0128 °C.

On to `C[C@@H](Oc1cc(-n2cnc3ccc(CN4CCN(C)CC4)cc32)sc1C(N)=O)c1ccccc1C(F)(F)F`, for which the “thermal shift ΔTm of Mpro” value is -0.343 °C. With `COc1cc(OC)c(OC)cc1C=O` [Asaraldehyde], the “thermal shift ΔTm of Mpro” value is 0.0687 °C. With `CNCC[C@H](Oc1cccc2ccccc12)c1cccs1` [Duloxetine HCl] the figure was 0.0734 °C; with `C[N+]1(C)CCCC(OC(=O)C(O)(c2ccccc2)c2ccccc2)C1` (stereo not given) [Mepenzolate Bromide], -0.043 °C; with `CC(=O)c1ccc2c(c1)N(CCCN1CCC(CCO)CC1)c1ccccc1S2` [Piperacetazine], -0.0469 °C.

For the molecule `CO[C@@]1(NC(=O)Cc2cccs2)C(=O)N2C(C(=O)O)=C(COC(N)=O)CS[C@@H]21` [Cefoxitin sodium], the “thermal shift ΔTm of Mpro” value stood at 0.0371 °C.

Regarding `COc1ccc2[nH]c(C(=O)N3CCC(CC(C)(C)O)CC3)cc2c1`, the “thermal shift ΔTm of Mpro” value turned out to be 0.108 °C. As to `CC1(COc2ccc3c(c2)ncn3-c2ccc3cccc(N4CCC(N)CC4)c3n2)COC1`, the “thermal shift ΔTm of Mpro” value is -0.13 °C. With `COc1ccccc1-c1cc(Nc2cccc(CS(N)(=O)=O)c2)ncn1` the figure was -0.179 °C; with `O=C1NCCSc2c1sc1ccc(O)cc21`, 0.0777 °C; with `NS(=O)(=O)c1cccc2c1c([N+](=O)[O-])cc1nc(O)c(O)nc12` [NBQX disodium salt], -0.0718 °C. With `Cc1cc(N2CCCCC2)nc2ccccc12`, the “thermal shift ΔTm of Mpro” value was found to be 0.319 °C. `CCCCC(CC)CN1CN(CC(CC)CCCC)CC(C)(N)C1` (stereo not given) [Hexetidine]: the “thermal shift ΔTm of Mpro” value is 0.175 °C. With `CCCC[S+]([O-])c1sc2nc(-c3cccs3)cc(-c3ccccc3)c2c1N` (stereo not given) the figure was -1.19 °C; with `c1ccc(CNc2ccccc2)cc1` [N-Phenylbenzylamine], -0.00202 °C. For `Nc1ccccc1NC(=O)c1ccc(CNC(=O)OCc2cccnc2)cc1` [Entinostat (MS-275)], the “thermal shift ΔTm of Mpro” value was 0.0523 °C. For the molecule `CCCCOc1c(C(=O)c2c(F)cc(C)cc2F)c[nH]c2nncc1-2`, the “thermal shift ΔTm of Mpro” value amounted to 0.0383 °C.

As for `CCC(=O)N1CCOc2c(cc(-c3ccc(OC)c(OC)c3)cc2OC[C@H]2CCCN(C)C2)C1` [I-CBP112 hydrochloride], the “thermal shift ΔTm of Mpro” value is 0.322 °C. With `COc1ccc(Cc2cnc(N)nc2N)cc1OC` [Diaveridine] the figure was -0.195 °C.

Regarding `CN(C)C(=O)COC(=O)Cc1ccc(OC(=O)c2ccc(NC(=N)N)cc2)cc1` [Camostat Mesilate], the “thermal shift ΔTm of Mpro” value was -0.103 °C. With `CC(C)C[C@@H]1NC(=O)[C@@H](C(C)C)NC(=O)[C@@H]2CCCN2C(=O)[C@@H](CC(=O)O)NC(=O)[C@@H](Cc2c[nH]c3ccccc23)NC1=O` (cyclo(L[dW][dD]P[dV])) the figure was -0.158 °C. For `CCC1(C)CC(=O)NC(=O)C1` [Bemegride], the “thermal shift ΔTm of Mpro” value is 0.0705 °C. Under `N=C(N)NC(=O)c1nc(Cl)c(N)nc1N` [Amiloride hydrochloride dihydrate] stands -0.0184 °C; under `N=C(N)NC(=O)c1nc(Cl)c(N)nc1N` [Amiloride HCl], 0.0492 °C; under `CCCCOC(=O)c1ccc(N)cc1` [Butyl 4-aminobenzoate], 0.114 °C. Regarding `O=C(Nc1cc(C(F)(F)F)ccc1O)Nc1cc(C(F)(F)F)ccc1O`, the “thermal shift ΔTm of Mpro” value was found to be 0.522 °C.

As to `Cc1ccccc1-n1c(Cn2ncc3c(N)ncnc32)nc2cccc(C)c2c1=O`, the “thermal shift ΔTm of Mpro” value is -0.133 °C. `CCN(Cc1ccc(Cl)nc1)/C(=C/[N+](=O)[O-])NC` [Nitenpyram]: the “thermal shift ΔTm of Mpro” value was -0.0635 °C. Under `O=C1N[C@@H](Cc2c[nH]c3ccccc23)C(=O)N2CCC[C@@H]12` [Brevianamide F] stands 7.29e-05 °C; under `N[C@@H]1CCCCN(c2c(F)cc3c(=O)c(C(=O)O)cn(C4CC4)c3c2Cl)C1` [Besifloxacin HCl], -0.00551 °C. With `OC1C[C@H]2CC[C@@H](C1)N2` (stereo not given in full) [Nortropine] the figure was 0.104 °C; with `CCCCCCCCC/C(=C\C1=C(C)C(=O)C(OC)=C(OC)C1=O)C(=O)O`, -0.0415 °C; with `C/C(O)=C(\C#N)C(=O)Nc1cc(Br)ccc1Br`, 0.307 °C. `O=[N+]([O-])c1ccc2c(c1)S(=O)(=O)C=C2` [Stattic]: the “thermal shift ΔTm of Mpro” value was -0.112 °C. As to `CC[C@H]1OC(=O)[C@H](C)[C@@H](O[C@H]2C[C@@](C)(OC)[C@@H](O)[C@H](C)O2)[C@H](C)[C@@H](O[C@@H]2O[C@H](C)C[C@H](N(C)C)[C@H]2O)[C@](C)(OC)C[C@@H](C)C(=O)[C@H](C)[C@@H](O)[C@]1(C)O` [Clarithromycin], the “thermal shift ΔTm of Mpro” value is -0.0539 °C. Regarding `NC(=O)Cc1cccc(C(=O)c2ccccc2)c1N` [Nepafenac], the “thermal shift ΔTm of Mpro” value was 0.124 °C.

Regarding `C[C@H]1COC2=C1C(=O)C(=O)c1c2ccc2c1CCCC2(C)C` [Cryptotanshinone], the “thermal shift ΔTm of Mpro” value came out at 0.0798 °C.

As to `CN(C)CC[C@H](CSc1ccccc1)Nc1ccc(S(=O)(=O)NC(=O)c2ccc(N3CCN(Cc4ccccc4-c4ccc(Cl)cc4)CC3)cc2)cc1[N+](=O)[O-]`, the “thermal shift ΔTm of Mpro” value worked out at 0.346 °C.

Take `COc1ccc2c(c1OCc1ccccc1)C[C@@H](C(=O)O)N(C(=O)C(c1ccccc1)c1ccccc1)C2`: the “thermal shift ΔTm of Mpro” value was determined as 0.256 °C.

`CCCCC1=NC2(CCCC2)C(=O)N1Cc1ccc(-c2ccccc2-c2nnn[nH]2)cc1` [Irbesartan]: the “thermal shift ΔTm of Mpro” value amounted to 0.364 °C.

For the molecule `NCC(=O)Nc1ccc(-n2nc(C(F)(F)F)cc2-c2ccc3c(ccc4ccccc43)c2)cc1`, the “thermal shift ΔTm of Mpro” value was 0.537 °C. For `NS(=O)(=O)c1cc2c(cc1Cl)N=CNS2(=O)=O` [Chlorothiazide], the “thermal shift ΔTm of Mpro” value came to 0.123 °C. For the molecule `COc1ccc(-c2cnc3c(-c4cccc5ncccc45)cnn3c2)cc1`, the “thermal shift ΔTm of Mpro” value was -0.171 °C. `O=c1c(O)c(-c2ccc(O)c(O)c2)oc2cc(O)ccc12` [Fisetin]: the “thermal shift ΔTm of Mpro” value is -0.0715 °C. For the molecule `O=C(COc1ccc(Cl)cc1)NC1CCC(NC(=O)COc2ccc(Cl)cc2)CC1` (stereo not given), the “thermal shift ΔTm of Mpro” value was 0.058 °C.

Take `COc1cc2ncnc(Oc3cccc(NC(=O)Nc4cc(C(C)(C)C(F)(F)F)on4)c3)c2cc1OC`: the “thermal shift ΔTm of Mpro” value amounted to 0.283 °C.

On to `CNS(=O)(=O)Cc1ccc2[nH]cc(CCN(C)C)c2c1` [Sumatriptan Succinate], for which the “thermal shift ΔTm of Mpro” value is 0.318 °C. For the molecule `O=C(CCCl)NCc1ccccc1` [Beclamide], the “thermal shift ΔTm of Mpro” value came to 0.223 °C. With `CN[C@H](CC(C)C)C(=O)N[C@H]1C(=O)N[C@@H](CC(N)=O)C(=O)N[C@H]2C(=O)N[C@H]3C(=O)N[C@H](C(=O)N[C@H](C(=O)O)c4cc(O)cc(O)c4-c4cc3ccc4O)[C@H](O)c3ccc(c(Cl)c3)Oc3cc2cc(c3O[C@@H]2O[C@H](CO)[C@@H](O)[C@H](O)[C@H]2O[C@H]2C[C@](C)(N)[C@H](O)[C@H](C)O2)Oc2ccc(cc2Cl)[C@H]1O` [Vancomycin hydrochloride], the “thermal shift ΔTm of Mpro” value was determined as 0.38 °C. For `NC(=O)c1ncn([C@@H]2O[C@H](CO)[C@@H](O)[C@H]2O)n1` [Ribavirin], the “thermal shift ΔTm of Mpro” value came to 0.0582 °C. On to `CCOc1ccc2c(c1)C(C)=CC(C)(C)N2` [Ethoxyquin], for which the “thermal shift ΔTm of Mpro” value was 0.112 °C.

Consider `CCOC(=O)[C@H](CCc1ccccc1)N[C@@H](C)C(=O)N1[C@H](C(=O)O)C[C@@H]2CCC[C@@H]21` [Ramipril], for which the “thermal shift ΔTm of Mpro” value was 0.0507 °C. As to `O=C(NCc1ccncc1)C12CC3CC(C1)CC(c1ccc(Cl)cc1)(C3)C2`, the “thermal shift ΔTm of Mpro” value was -0.173 °C. Turning to `CNC(=O)c1ccc(-c2cnc3ncc(Cc4ccc5ncccc5c4)n3n2)cc1F` [Capmatinib 2HCl], the “thermal shift ΔTm of Mpro” value is -0.0159 °C. Under `CNC(=O)c1ccc(-c2cnc3ncc(Cc4ccc5ncccc5c4)n3n2)cc1F` [Capmatinib] stands 0.0195 °C. As to `Cc1ccc(S(=O)(=O)n2c(N)nc3ccccc32)cc1` [ML130 (Nodinitib-1)], the “thermal shift ΔTm of Mpro” value was -0.0272 °C. For the molecule `CCN(Cc1ccccc1)C(=O)Cn1c(=O)n(C)c2cnc(-c3ccccc3)nc21` [Emapunil], the “thermal shift ΔTm of Mpro” value is -0.227 °C.

With `O=C(O)c1cc(=O)c2ccccc2o1` [Chromocarb], the “thermal shift ΔTm of Mpro” value was -0.0187 °C. `Oc1ccc(Cl)cc1Cc1cc(Cl)ccc1O` [Dichlorophen]: the “thermal shift ΔTm of Mpro” value is 0.303 °C. On to `NS(=O)(=O)c1cc(C(=O)O)c(NCc2ccco2)cc1Cl` [Furosemide], for which the “thermal shift ΔTm of Mpro” value was -0.156 °C.

For the molecule `CCOc1cc([C@@H](CS(C)(=O)=O)N2C(=O)c3cccc(NC(C)=O)c3C2=O)ccc1OC`, the “thermal shift ΔTm of Mpro” value was -0.247 °C. With `Cc1cc(C2CCCCC2)n(O)c(=O)c1` [Ciclopirox] the figure was 0.0366 °C. In the case of `Cc1cc(C2CCCCC2)n(O)c(=O)c1` [Ciclopirox ethanolamine], the “thermal shift ΔTm of Mpro” value was -0.0411 °C.

On to `CC1=C(C(=O)OC(C)C)C(c2cccc([N+](=O)[O-])c2)C(C(=O)OC2CN(C(c3ccccc3)c3ccccc3)C2)=C(N)N1` (stereo not given) [Azelnidipine], for which the “thermal shift ΔTm of Mpro” value was 0.639 °C.
